Results: the supplement of paper PMC12462457
± gives the standard deviation of the averaged measurements. The list shows a part of the results. Repeats in this data set agree poorly, so a single value says little.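 Cell counts came from imaging DAPI-stained nuclei, excluding as dead any cells lacking phalloidin-stained cytoplasm. Counts per well were normalized to the median vehicle-well count on that plate, and the values were averaged over two replicate plates.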

System: OVCAR8
Test: cell count relative to DMSO vehicle (fold change); higher = more surviving senescent cells (less killing)
Conditions: senescence inducer: cisplatin 10 µM 48 h, then 6 d recovery (CP senescent), exposure time 24 h

Row | Structure (SMILES) | cell count (compound dose 1 µM) | cell count (compound dose 5 µM)
1 | O=C(O)Cn1nnc(-c2ccc(CN(CCCCOc3ccc(CN4CCCC4)cc3)CCc3ccccc3)cc2)n1 | 0.927 ± 0.03 | 1.13 ± 0.013
2 | O=C(O)C1=CC(=C(c2ccc(O)c(C(=O)O)c2)c2ccc(O)c(C(=O)O)c2)C=CC1=O [Aurintricarboxylic acid] | 0.993 ± 0.095 | 0.767 ± 0.024
3 | CC1=NN(c2ccc(C)c(C)c2)C(=O)/C1=N\Nc1cccc(-c2cccc(C(=O)O)c2)c1O [Eltrombopag] | 1.1 ± 0.0099 | 0.831 ± 0.21
4 | COc1ccc(-c2cc(=O)c3c(O)c(OC)c(OC)c(OC)c3o2)cc1 | 0.864 ± 0.05 | 0.853 ± 0.05
5 | CCCCCCCC/C=C/CCCCCCCC(=O)OC[C@H]1O[C@@H](n2ccc(N)nc2=O)C(F)(F)[C@@H]1O [Gemcitabine (elaidate)] | 0.957 ± 0.0071 | 1.17 ± 0.04
6 | Cc1cc(/C=C2\CC/C(=C\c3cc(C)c(O)c(C)c3)C2=O)cc(C)c1O [Pentagamavunon-1] | 0.937 ± 0.054 | 0.717 ± 0.36
7 | CCCOc1ccc2[nH]c(NC(=O)OC)nc2c1 | 1 ± 0.061 | 0.718 ± 0.045
8 | C[C@]12C=CC(=O)N[C@@H]1CC[C@@H]1[C@@H]2CC[C@]2(C)[C@@H](C(=O)Nc3cc(C(F)(F)F)ccc3C(F)(F)F)CC[C@@H]12 [Dutasteride] | 0.806 ± 0.025 | 0.816 ± 0.078
9 | COc1ccc(-c2nc(N3CCOCC3)c3sc(CN(C)c4ncc(C(=O)NO)cn4)cc3n2)cn1 | 0.261 ± 0.033 | 0.182 ± 0.033
10 | O=C(Nc1ccccc1-c1cn2c(CN3CC[C@@H](O)C3)csc2n1)c1ccc2ccccc2c1 | 0.9205 ± 0.0092 | 1.02 ± 0.053
11 | Cc1cnc(Nc2ccc(OCCN3CCCC3)cc2)nc1Nc1cccc(S(=O)(=O)NC(C)(C)C)c1 | 1.1 ± 0.044 | 0.314 ± 0.16
12 | c1ccc2c(CCNc3ccc(Nc4ccncc4)cc3)c[nH]c2c1 [Serdemetan] | 1.22 ± 0.067 | 0.728 ± 0.0071
13 | COc1ccc(/C=C/c2cc(O)cc(O[C@@H]3O[C@H](CO)[C@@H](O)[C@H](O)[C@H]3O)c2)cc1 [Desoxyrhaponticin] | 1.15 ± 0.099 | 0.831 ± 0.36
14 | O=C(/C=C/c1ccc(O)c(O)c1)O[C@@H]1C[C@@](O)(C(=O)O)C[C@@H](O)[C@@H]1O [Neochlorogenic acid] | 1.111 ± 0.005 | 1.34 ± 0.067
15 | C=C1C(=O)O[C@@H]2C[C@@]3(C)CCCC(=C)[C@@H]3C[C@H]12 [Isoalantolactone] | 0.953 ± 0.25 | 0.966 ± 0.1
16 | CC(C)[C@@H](C)[C@@H](O)[C@H](O)[C@@H](C)[C@H]1CC[C@H]2[C@@H]3COC(=O)[C@H]4C[C@H](O)[C@H](O)C[C@]4(C)[C@H]3CC[C@]12C [Epibrassinolide] | 1.04 ± 0.22 | 1.03 ± 0.012
17 | O=[N+]([O-])c1ccc(SCCCCCCO)c2nonc12 | 0.705 ± 0.075 | 0.05 ± 0.024
18 | COc1ccc(Cl)cc1NC(=O)Nc1cc(C)nc2ccccc12 | 0.921 ± 0.2 | 0.735 ± 0.23

Sorted by SMILES length (smallest number first): 3 of the compounds above.
Row | Structure (SMILES) | cell count (compound dose 1 µM) | cell count (compound dose 5 µM)
7 | CCCOc1ccc2[nH]c(NC(=O)OC)nc2c1 | 1 ± 0.061 | 0.718 ± 0.045
18 | COc1ccc(Cl)cc1NC(=O)Nc1cc(C)nc2ccccc12 | 0.921 ± 0.2 | 0.735 ± 0.23
15 | C=C1C(=O)O[C@@H]2C[C@@]3(C)CCCC(=C)[C@@H]3C[C@H]12 [Isoalantolactone] | 0.953 ± 0.25 | 0.966 ± 0.1
